Assay results as given in the supplement of paper PMC8728848.
The list shows a part of the results.

Experiments:
Assay in all cases: glycan array binding signal (z-score within array); higher = stronger binding
Conditions in all cases: glycan notation: IUPAC condensed, linker removed
[1] = target: Fuc(a1-2)Gal6S(b1-3)GlcNAc6S
Method in brief: (§1)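 Glycan array binding is given as a within-array Z-score, which can be read as non-binding when negative. The arrays, 3228 of them, came from the Consortium for Functional Glycomics database and were retained only where the protein sequence was available. Z-scores were averaged across arrays of the same protein sequence at different concentrations or buffers and across linkers.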

Fuc(a1-2)Gal6S(b1-4)Glc = target: Fuc(a1-2)Gal6S(b1-4)Glc
Method in brief: as §1

[2] = target: Fuc(a1-2)Gal6S(b1-4)Glc6S
Method in brief: as §1

Fuc(a1-2)[Gal(a1-3)]Gal = target: Fuc(a1-2)[Gal(a1-3)]Gal
Method in brief: as §1

[3] = target: Fuc(a1-2)[Gal(a1-3)]Gal(b1-3)GalNAc
Method in brief: as §1

[4] = target: Fuc(a1-2)[Gal(a1-3)]Gal(b1-3)GalNAc(b1-3)Gal(a1-4)Gal(b1-4)Glc
Method in brief: as §1

[5] = target: Fuc(a1-2)[Gal(a1-3)]Gal(b1-3)GlcNAc
Method in brief: as §1

[6] = target: Fuc(a1-2)[Gal(a1-3)]Gal(b1-3)GlcNAc(b1-2)Man(a1-3)[Fuc(a1-2)[Gal(a1-3)]Gal(b1-3)GlcNAc(b1-2)Man(a1-6)]Man(b1-4)GlcNAc(b1-4)GlcNAc
Method in brief: as §1

[7] = target: Fuc(a1-2)[Gal(a1-3)]Gal(b1-3)GlcNAc(b1-2)Man(a1-3)[Fuc(a1-2)[Gal(a1-3)]Gal(b1-3)GlcNAc(b1-2)Man(a1-6)]Man(b1-4)GlcNAc(b1-4)[Fuc(a1-6)]GlcNAc
Method in brief: as §1

[8] = target: Fuc(a1-2)[Gal(a1-3)]Gal(b1-3)GlcNAc(b1-3)GalNAc
Method in brief: as §1

[9] = target: Fuc(a1-2)[Gal(a1-3)]Gal(b1-3)GlcNAc(b1-6)GalNAc
Method in brief: as §1

[10] = target: Fuc(a1-2)[Gal(a1-3)]Gal(b1-4)Glc
Method in brief: as §1

[11] = target: Fuc(a1-2)[Gal(a1-3)]Gal(b1-4)GlcNAc
Method in brief: as §1

[12] = target: Fuc(a1-2)[Gal(a1-3)]Gal(b1-4)GlcNAc(b1-2)Man
Method in brief: as §1

[13] = target: Fuc(a1-2)[Gal(a1-3)]Gal(b1-4)GlcNAc(b1-2)Man(a1-3)[Fuc(a1-2)[Gal(a1-3)]Gal(b1-4)GlcNAc(b1-2)Man(a1-6)]Man(b1-4)GlcNAc(b1-4)GlcNAc
Method in brief: as §1

[14] = target: Fuc(a1-2)[Gal(a1-3)]Gal(b1-4)GlcNAc(b1-2)Man(a1-3)[Fuc(a1-2)[Gal(a1-3)]Gal(b1-4)GlcNAc(b1-2)Man(a1-6)]Man(b1-4)GlcNAc(b1-4)[Fuc(a1-6)]GlcNAc
Method in brief: as §1

[15] = target: Fuc(a1-2)[Gal(a1-3)]Gal(b1-4)GlcNAc(b1-3)GalNAc
Method in brief: as §1

[16] = target: Fuc(a1-2)[Gal(a1-3)]Gal(b1-4)GlcNAc(b1-3)[Fuc(a1-2)[Gal(a1-3)]Gal(b1-4)GlcNAc(b1-6)]GalNAc
Method in brief: as §1

[17] = target: Fuc(a1-2)[Gal(a1-3)]Gal(b1-4)GlcNAc(b1-6)GalNAc
Method in brief: as §1

[18] = target: Fuc(a1-2)[Gal(a1-3)]Gal(b1-4)[Fuc(a1-3)]Glc
Method in brief: as §1

[19] = target: Fuc(a1-2)[Gal(a1-3)]Gal(b1-4)[Fuc(a1-3)]GlcNAc
Method in brief: as §1

[20] = target: Fuc(a1-2)[Gal(a1-3)]Gal(b1-4)[Fuc(a1-3)]GlcNAc(b1-3)GalNAc
Method in brief: as §1

[21] = target: Fuc(a1-2)[Gal(a1-4)]Gal(b1-4)GlcNAc
Method in brief: as §1

[22] = target: Fuc(a1-2)[GalNAc(a1-3)]Gal
Method in brief: as §1

[23] = target: Fuc(a1-2)[GalNAc(a1-3)]Gal(b1-3)GalNAc(a1-3)[Fuc(a1-2)]Gal(b1-4)GlcNAc
Method in brief: as §1

[24] = target: Fuc(a1-2)[GalNAc(a1-3)]Gal(b1-3)GalNAc(b1-3)Gal(a1-4)Gal(b1-4)Glc
Method in brief: as §1

[25] = target: Fuc(a1-2)[GalNAc(a1-3)]Gal(b1-3)GlcNAc
Method in brief: as §1

[26] = target: Fuc(a1-2)[GalNAc(a1-3)]Gal(b1-3)GlcNAc(b1-2)Man(a1-3)[Fuc(a1-2)[GalNAc(a1-3)]Gal(b1-3)GlcNAc(b1-2)Man(a1-6)]Man(b1-4)GlcNAc(b1-4)GlcNAc
Method in brief: as §1

[27] = target: Fuc(a1-2)[GalNAc(a1-3)]Gal(b1-3)GlcNAc(b1-2)Man(a1-3)[Fuc(a1-2)[GalNAc(a1-3)]Gal(b1-3)GlcNAc(b1-2)Man(a1-6)]Man(b1-4)GlcNAc(b1-4)[Fuc(a1-6)]GlcNAc
Method in brief: as §1

[28] = target: Fuc(a1-2)[GalNAc(a1-3)]Gal(b1-3)GlcNAc(b1-3)GalNAc
Method in brief: as §1

[29] = target: Fuc(a1-2)[GalNAc(a1-3)]Gal(b1-3)GlcNAc(b1-6)GalNAc
Method in brief: as §1

[30] = target: Fuc(a1-2)[GalNAc(a1-3)]Gal(b1-4)Glc
Method in brief: as §1

[31] = target: Fuc(a1-2)[GalNAc(a1-3)]Gal(b1-4)GlcNAc
Method in brief: as §1

[32] = target: Fuc(a1-2)[GalNAc(a1-3)]Gal(b1-4)GlcNAc(b1-2)Man
Method in brief: as §1

[33] = target: Fuc(a1-2)[GalNAc(a1-3)]Gal(b1-4)GlcNAc(b1-2)Man(a1-3)[Fuc(a1-2)[GalNAc(a1-3)]Gal(b1-4)GlcNAc(b1-2)Man(a1-6)]Man(b1-4)GlcNAc(b1-4)GlcNAc
Method in brief: as §1

[34] = target: Fuc(a1-2)[GalNAc(a1-3)]Gal(b1-4)GlcNAc(b1-2)Man(a1-3)[Fuc(a1-2)[GalNAc(a1-3)]Gal(b1-4)GlcNAc(b1-2)Man(a1-6)]Man(b1-4)GlcNAc(b1-4)[Fuc(a1-6)]GlcNAc
Method in brief: as §1

[35] = target: Fuc(a1-2)[GalNAc(a1-3)]Gal(b1-4)GlcNAc(b1-3)Gal(b1-4)GlcNAc
Method in brief: as §1

[36] = target: Fuc(a1-2)[GalNAc(a1-3)]Gal(b1-4)GlcNAc(b1-3)Gal(b1-4)GlcNAc(b1-3)Gal(b1-4)GlcNAc
Method in brief: as §1

[37] = target: Fuc(a1-2)[GalNAc(a1-3)]Gal(b1-4)GlcNAc(b1-3)GalNAc
Method in brief: as §1

[38] = target: Fuc(a1-2)[GalNAc(a1-3)]Gal(b1-4)GlcNAc(b1-3)[Fuc(a1-2)[GalNAc(a1-3)]Gal(b1-4)GlcNAc(b1-6)]GalNAc
Method in brief: as §1

[39] = target: Fuc(a1-2)[GalNAc(a1-3)]Gal(b1-4)GlcNAc(b1-6)GalNAc
Method in brief: as §1

[40] = target: Fuc(a1-2)[GalNAc(a1-3)]Gal(b1-4)[Fuc(a1-3)]GlcNAc
Method in brief: as §1

[41] = target: Fuc(a1-2)[GalNAc(a1-3)]Gal(b1-4)[Fuc(a1-3)]GlcNAc(b1-3)GalNAc
Method in brief: as §1

[42] = target: Fuc(a1-2)[GalNAc(a1-4)]Gal(b1-4)GlcNAc
Method in brief: as §1

[43] = target: Fuc(a1-2)[GalNAc(b1-3)]Gal
Method in brief: as §1

B1: GS13814A-bth-462-26-462 (Bacteroides thetaiotaomicron) (protein)
chain: DDRDNLMVNDQIGLLHSTYTETEIFRGMDTPYQLFVIKSGKGKQETEVSISVDETVLQSYNTDNGTSIQLLPSDCYTILQPALRLNDSDYRKAFDIKWNADRLSDLLSTGKEYGLPIQMSVVQNFISADDERLKTIIVPTIKEPYLQMDVPGMSPVTDFMPTFGDLNERELFVKIRTNYSNDEDISFQIEVDPQLVIDYNTAHGTAYKMLPESSFTVDNKGVILTGMKETFIKIKYHKKGLIPEEGTYLFGDYVLPLRITSVSKYGISPDAASKLYTVKFQPDPIDKKGWSVIDFNNCCTQDGGWYLNMGWGVESLIDNNPGTQWLCRWDVKEPLPYYFVFDMGKEYTLFRFGFANPVAPAAHVWAGTSKAGYVEASIDNENWVKLKDWTSPKIGEPNVNMDVPATQARYIRFVITDTYPTYDGLRVSLGEVYAWGM
glycan array binding signal (z-score) [1]: 3.15 | glycan array binding signal (z-score) (Fuc(a1-2)Gal6S(b1-4)Glc): 0.446 | glycan array binding signal (z-score) [2]: 0.375 | glycan array binding signal (z-score) (Fuc(a1-2)[Gal(a1-3)]Gal): 0.269 | glycan array binding signal (z-score) [3]: -0.664 | glycan array binding signal (z-score) [4]: -0.882 | glycan array binding signal (z-score) [5]: -0.307 | glycan array binding signal (z-score) [6]: -0.154 | glycan array binding signal (z-score) [7]: -1.04 | glycan array binding signal (z-score) [8]: -0.074 | glycan array binding signal (z-score) [9]: -0.379 | glycan array binding signal (z-score) [10]: -0.178 | glycan array binding signal (z-score) [11]: 0.33 | glycan array binding signal (z-score) [12]: -0.054 | glycan array binding signal (z-score) [13]: 0.505 | glycan array binding signal (z-score) [14]: -0.69 | glycan array binding signal (z-score) [15]: -0.118 | glycan array binding signal (z-score) [16]: 1.55 | glycan array binding signal (z-score) [17]: -1.44 | glycan array binding signal (z-score) [18]: 0.027 | glycan array binding signal (z-score) [19]: 0.358 | glycan array binding signal (z-score) [20]: -0.497 | glycan array binding signal (z-score) [21]: 1.11 | glycan array binding signal (z-score) [22]: 0.259 | glycan array binding signal (z-score) [23]: -1.08 | glycan array binding signal (z-score) [24]: 1.01 | glycan array binding signal (z-score) [25]: 0.611 | glycan array binding signal (z-score) [26]: -0.564 | glycan array binding signal (z-score) [27]: -0.212 | glycan array binding signal (z-score) [28]: 0.298 | glycan array binding signal (z-score) [29]: -0.474 | glycan array binding signal (z-score) [30]: 0.619 | glycan array binding signal (z-score) [31]: -0.523 | glycan array binding signal (z-score) [32]: -1.02 | glycan array binding signal (z-score) [33]: -0.488 | glycan array binding signal (z-score) [34]: -0.718 | glycan array binding signal (z-score) [35]: 0.238 | glycan array binding signal (z-score) [36]: -0.363 | glycan array binding signal (z-score) [37]: -0.276 | glycan array binding signal (z-score) [38]: -0.351 | glycan array binding signal (z-score) [39]: -0.544 | glycan array binding signal (z-score) [40]: 1.64 | glycan array binding signal (z-score) [41]: 2.42 | glycan array binding signal (z-score) [42]: -0.027 | glycan array binding signal (z-score) [43]: 0.724
